# Tested on: human colonic dysplasia
# Assay: Binding of EGFR peptide and antibody to human colonic dysplasia specimens, confocal microscopy
# Conditions: merged image with AF488-labeled anti-EGFR
# Method: For the in vivo fluorescence images of mouse colon, the T/B ratios for flat dysplasia and polyps were log-transformed to improve normality. The fold-change between classification pairs was estimated using the anti-log of the difference in the log-transformed data. Differences in results between the experimental and control peptides were evaluated on t-test. *P<0.05 was considered significant. Similar methods were used to evaluate the ex vivo fluorescence images of human colonic specimens. The results were plotted on a receiver-operator characteristic (ROC) curve. Co-localization of peptide and antibody binding was evaluated on Pearson's correlation coefficient. All analyses were performed using custom Matlab software (MathWorks Inc).
# Specimens of human colonic mucosa were obtained from biopsy during routine colonoscopy, frozen in OCT, cut in 10 μm sections, and incubated with QRH*-Cy5.5 (5 μM) in 1×PBS for 10 min at RT. The sections were washed 3× with PBS and incubated overnight at 4° C. with 1:1000 dilution of primary monoclonal rabbit anti-EGFR antibody (Cell Signaling Technology, #4267, isotype IgG). […] Confocal fluorescence images were collected with DAPI, FITC and Cy5.5 filters with 20× objective (Leica TCS SP5 Microsystems). The mean fluorescence intensities from 3 boxes (dimensions of 30×30 μm2) located completely within the surface epithelium of each specimen were measured. […]
substance,measurement,value
QRHKPRE (SEQ ID NO: 1) with Cy5.5 fluorophore attached via a GGGSK linker (SEQ ID NO: 18) on the C-terminus [QRH*-Cy5.5],co-localization of peptide and antibody binding (Pearson's correlation coefficient),0.71
